Results reported in patent US20210206842A1.
Results are given in words; binding and its absence hold for the method and conditions named.

Key:
VHH FC5 [1] = assay: SPR (Biacore T200), ligand 3A8 captured by anti-mouse IgG, VHH FC5 flowed, 25 °C
VHH FC5 [2] = assay: SPR (Biacore T200), 1 µM FC5 flowed over captured mAb 3A8
VHH FC5 [3] = assay: SPR, two orientations (Fc-captured mAb; immobilized FC5 with mAb flowed)
VHH FC5 [4] = assay: SPR, single cycle kinetics, Fc-captured mAb, FC5 flowed, 25 C
[5] = target: T1, peptide #2b (20 aa) (human); assay: ELISA on coated P2b, mAb at the dilutions 1:1000, 1:5000 and 1:10000, Abs 450nm
T1 sequence (peptide): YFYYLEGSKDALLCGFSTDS

binding (VHH FC5 [2]): no binding (tested: 1 µM)
binding (VHH FC5 [3]): no binding
binding (VHH FC5 [4]): no binding
binding [5]: no binding (tested: 1:1000 dilution)
B1: anti-hNav1.7 mAb 3A8 (antibody, V domains shown)
VH: QVQLQQPGAELVKPGASVKLSCKASGYTFTNYWMHWVKQRPGQGLEWIGEINPSNGRANYNEKFKSKATLTVDKSSSTAYMQLSSLTSEDSAVYYCARSPYGYYDYWGQGTTLTVSS
VL: DVLMTQTPLSLPVSLGDQASISCRSSQSLLHSNGNTYFHWYLQKPGQSPKLLIYKVSNRFFGVPDRFSGSGSGTDFTLKISRVEAEDLGVYFCSQITHVPLTFGAGTKLELK
binding (VHH FC5 [1]): no binding (tested: 1 µM (from the legend, not on the sheet))
